Results as given in paper doi:10.1101/2022.01.20.477040.
No constants are given. Whether binding was seen depends on the method and setting. Binding seen in cells or lysates may run through a third protein. Some binding calls cover weakened binding; strength is not graded here. Each block holds one substance with its values, some of them ahead of it.

The chains behind the UniProt entries cited, without tags or fusion partners.
UniProt Q15365: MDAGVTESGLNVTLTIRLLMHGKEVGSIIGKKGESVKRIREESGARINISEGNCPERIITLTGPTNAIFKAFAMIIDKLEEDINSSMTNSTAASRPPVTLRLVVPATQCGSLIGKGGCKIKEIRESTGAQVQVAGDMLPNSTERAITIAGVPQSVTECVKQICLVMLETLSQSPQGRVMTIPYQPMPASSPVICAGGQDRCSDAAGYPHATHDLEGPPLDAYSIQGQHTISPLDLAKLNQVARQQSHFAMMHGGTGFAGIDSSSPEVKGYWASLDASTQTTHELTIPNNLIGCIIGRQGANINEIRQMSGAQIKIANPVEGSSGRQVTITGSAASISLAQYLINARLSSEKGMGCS
UniProt P84022: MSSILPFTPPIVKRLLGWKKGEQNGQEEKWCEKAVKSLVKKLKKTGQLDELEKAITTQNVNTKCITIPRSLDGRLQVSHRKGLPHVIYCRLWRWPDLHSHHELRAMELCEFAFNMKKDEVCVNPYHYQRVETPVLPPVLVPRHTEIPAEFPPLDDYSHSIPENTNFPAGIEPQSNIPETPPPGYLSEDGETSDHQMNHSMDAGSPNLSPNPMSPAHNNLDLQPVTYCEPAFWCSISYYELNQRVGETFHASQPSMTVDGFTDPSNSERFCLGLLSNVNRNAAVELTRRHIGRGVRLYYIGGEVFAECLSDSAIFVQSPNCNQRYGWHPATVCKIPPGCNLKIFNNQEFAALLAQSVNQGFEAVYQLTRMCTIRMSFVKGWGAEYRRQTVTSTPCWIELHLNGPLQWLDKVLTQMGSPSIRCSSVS
UniProt P60335: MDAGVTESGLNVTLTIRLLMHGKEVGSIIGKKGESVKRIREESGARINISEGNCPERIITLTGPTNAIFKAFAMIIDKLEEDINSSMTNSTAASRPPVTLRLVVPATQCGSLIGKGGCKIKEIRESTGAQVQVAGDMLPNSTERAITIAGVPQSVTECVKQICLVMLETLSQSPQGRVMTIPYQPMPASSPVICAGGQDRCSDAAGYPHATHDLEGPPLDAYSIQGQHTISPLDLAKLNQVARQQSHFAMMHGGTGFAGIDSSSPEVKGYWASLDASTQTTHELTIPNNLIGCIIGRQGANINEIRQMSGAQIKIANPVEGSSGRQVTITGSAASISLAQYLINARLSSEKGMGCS
UniProt Q8BUN5: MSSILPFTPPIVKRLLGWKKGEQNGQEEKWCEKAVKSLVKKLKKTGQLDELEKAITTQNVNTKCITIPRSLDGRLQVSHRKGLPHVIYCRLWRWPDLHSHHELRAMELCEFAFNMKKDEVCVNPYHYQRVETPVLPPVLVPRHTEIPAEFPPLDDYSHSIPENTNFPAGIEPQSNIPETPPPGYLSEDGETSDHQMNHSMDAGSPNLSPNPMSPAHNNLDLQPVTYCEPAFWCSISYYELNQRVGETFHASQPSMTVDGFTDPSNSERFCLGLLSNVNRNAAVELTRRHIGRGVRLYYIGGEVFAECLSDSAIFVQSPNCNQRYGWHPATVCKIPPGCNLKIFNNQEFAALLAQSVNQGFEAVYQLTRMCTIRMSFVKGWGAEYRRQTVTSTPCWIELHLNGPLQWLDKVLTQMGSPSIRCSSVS

Legend:
[1] = biological target: PCBP1 (poly-(rC)-binding protein 1) (human (endogenous in HeLa)) (UniProt Q15365); experiment: co-IP
[2] = biological target: Smad3 (human (endogenous in HeLa)) (UniProt P84022); experiment: co-IP
[3] = biological target: PCBP1 (poly-(rC)-binding protein 1) (mouse (endogenous in primary MSN cultures)) (UniProt P60335); experiment: proximity ligation

binding [1]: binds
Substance: Smad3 (from UniProt P84022 1-425)

binding [2]: binds
Substance: PCBP1 (poly-(rC)-binding protein 1) (from UniProt Q15365 1-356)

binding [3]: binds
Substance: Smad3 (from UniProt Q8BUN5 1-425)
